{"source": "PubChem BioAssay AID686937 (Drosophila RNAi Screening Center, 2013)", "test": "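Knock-downs that reduce output of a secreted reporter enzyme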 (primary screen)", "cells": "Drosophila S2 cells expressing secreted horseradish peroxidase", "knock-down reagent": "long dsRNA against Drosophila genes", "time to read-out": "about 5.5 days (5 days dsRNA, then 12 h reporter induction)", "treatment": "reporter expression induced after 5 days of dsRNA, read 12 h later; inducer not stated", "read-out": "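After 5 days of dsRNA and 12 h of reporter induction, medium peroxidase read by chemiluminescence and scored as per-plate z-score; higher values mean more reporter released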", "reading the numbers": "z-score: higher = more reporter secreted into medium", "note": "In all, the deposit lists about 23,000 reagents; shown is an unselected part of those with a known target gene and a result. 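Reduced-secretion tags in replicate 1 do not always agree with the z-scores; no criterion for assigning the tags was given.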 A plus sign joins genes that one reagent is predicted to hit. Not all columns of the deposit are shown. Not stated in the record: the amount of reagent."}
{"predicted target":"CG7692","PubChem SID":"SID104190694","z-score, replicate 1":0.4}
{"predicted target":"CG31253 + CG31131","PubChem SID":"SID104193631","z-score, replicate 1":-0.36}
{"predicted target":"CG5783","PubChem SID":"SID104182686","z-score, replicate 1":0.37}
{"predicted target":"CG13438","PubChem SID":"SID104186190","z-score, replicate 1":0.42}
{"predicted target":"m-cup (mann-cup)","PubChem SID":"SID104194222","z-score, replicate 1":-0.01}
{"predicted target":"Hpf1 (Histone PARylation factor 1)","PubChem SID":"SID104191994","z-score, replicate 1":0.3}
{"predicted target":"Cht5 (Chitinase 5)","PubChem SID":"SID104196262","z-score, replicate 1":0.48}
{"predicted target":"Nep6 (Neprilysin 6)","PubChem SID":"SID104199669","z-score, replicate 1":0.03}
{"predicted target":"CG18542 + CG32939","PubChem SID":"SID104195134","z-score, replicate 1":0.33}
{"predicted target":"CG1998","PubChem SID":"SID104199621","z-score, replicate 1":0.52}
{"predicted target":"CG18537","PubChem SID":"SID104186556","z-score, replicate 1":0.46}
{"predicted target":"TotF (Turandot F)","PubChem SID":"SID104182097","z-score, replicate 1":0.45}
{"predicted target":"CG5265","PubChem SID":"SID104195548","z-score, replicate 1":-0.04}
{"predicted target":"CG14684","PubChem SID":"SID104194699","z-score, replicate 1":0.4}
{"predicted target":"fand (fandango)","PubChem SID":"SID104186759","z-score, replicate 1":-2.54}
{"predicted target":"Rcd2 (Reduction in Cnn dots 2)","PubChem SID":"SID104191548","z-score, replicate 1":0.16}

An excerpt taken from the entries so far, as a working copy:
{"predicted target":"CG5265","PubChem SID":"SID104195548","z-score, replicate 1":-0.04}
{"predicted target":"CG14684","PubChem SID":"SID104194699","z-score, replicate 1":0.4}
